Source: publication PMC9758184

Tested on: PmlR2 (Pseudomonas mendocina NBRC 14162)
Assay: SPR
Conditions: SPR: HBS-EP, 28 C, recombinant protein, label: 5' biotin on strand 1

“GATAGACACAGGTAAGCTTAGAACAAGTTTAAAGCTTAGGTCTTTCGAGG (double strand) [mutated Site 2 (BIA-2F/BIA-2R)]”: no binding (8.6-275.2 nM PmlR2).
“GATAGACACAGGTTGTACAAGAACAAGTTTATGTACAAGGTCTTTCGAGG (double strand) [Site 2 of P6650 (BIA-1F/BIA-1R)]”: binds more weakly (34.4 nM PmlR2 with 292.3 nM PmSB-LOV, blue light 450 nm 90 s); binds (34.4 nM PmlR2 with 292.3 nM PmSB-LOV, dark or 365 nm, green or red light); binds (34.4 nM PmlR2 with 292.3 nM PmSB-LOVC53A (P3), no inhibition). “GATAGACACAGGTTGTACAAGAACAAGTTTATGTACAAGGTCTTTCGAGG (double strand) [Site 2 of P6650 (BIA-1F/BIA-1R)]”: binds (34.4 nM PmlR2 with PmSB-LOV, blue light then long dark incubation (recovery)); binds (8.6-275.2 nM PmlR2); binds (PmlR2 alone, illuminated, affinity unaffected).
“GTGTCTAGAATGACCGGCTCACCTGAGCCTGGGTTTTTGCCCAAACGGTT (double strand) [P468 (BIA-3F/BIA-4F)]”: no binding (8.6-275.2 nM PmlR2).

Construct, isoform or probe ends are uncertain for at least one entry. A negative result means that nothing was seen under these conditions. A weaker result is weaker than the reference pair of the same experiment.
